# Measured values from patent US9688760B2, “Anti-leukocyte adhesion for the mitigation of potential adverse events caused by CD3-specific binding domains” (AMGEN RESEARCH (MUNICH) GMBH, priority 2013, dated 2017).
# For at least one compound, name, drawing or mass did not settle the structure.
# Test system: HUVEC
# Assay: In vitro flow chamber: T cell-rolling and adhesion on HUVEC, long-term conditions
# Assay type: cell-based, human
# Conditions: +AMG 103, +minocycline 50 μg/ml vs absence of Blinatumomab; 40 min
# Procedure: Human brain microvascular endothelial cells (HBMEC) (#1000, Sciencell Research Laboratories) or human umbilical vein endothelial cells (HUVEC) (#C-12200, Promocell) were used as endothelial cell-model. Cryopreserved HBMEC at passage 1 (>5×10^5 cells/ml) were first cultivated in fibronectin-coated Nunclon-treated 75 cm^2 cell culture flasks (#156499, Nunc) at 37° C. and 5% CO2 in a Heraeus Cytoperm 2 (Thermo Scientific) according to the manufacturer's instructions. Sub-cultivation of HBMEC was done with the Detach Kit (#C-41200, Promocell) consisting of HEPES-buffered balanced salt solution (#C-40000, Promocell), trypsin-EDTA solution (0.04%/0.03%) (#C-41000, Promocell) and trypsin neutralization solution (TNS, #C-41100, Promocell). Briefly, the medium was aspirated from the HBMEC-layer and cells were washed with 2 ml of HEPES-buffered balanced salt solution. Addition of 2 ml of trypsin-EDTA solution for 1-5 min at room temperature led to detachment of HBMEC from the flask bottom. Inactivation of trypsin-EDTA solution was performed by addition of 2 ml of trypsin neutralization solution to the cell suspension. Cells were centrifuged at 300 g for 4 min in a Heraeus Megafuge 40 (Thermo Scientific) and seeded at a cell density of 5×10^5 cells per gelatin-coated 75 cm^2 cell culture flask (#L7230, Biochrom). […]
compound,measurement,value
"CN(C)c1ccc(O)c2c1C[C@H]1C[C@H]3[C@H](N(C)C)C(O)=C(C(N)=O)C(=O)[C@@]3(O)C(O)=C1C2=O [minocycline, Minocycline]",number of adhering T cells,comparable or even lower level
